Measured values reported in PubChem BioAssay AID504582 (Broad Institute, 2011).
Hit rate of the full screen: of about 340,000 compounds, about 2,300 (0.68%) were called active. Inconclusive means that the source gave no clear call. Such entries were picked first, then a sample of the others. Cut-off read from the data, not from the text of the source: active = growth rescue above about 28% (passing the limit was not always enough); inconclusive = no clear call, values can overlap the other calls.

Assay: rescue of yeast from PfHsp40 toxicity, primary screen, S. cerevisiae, ATP luminescence (AID 504582);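 note: yeast W303a lacking pdr1 and pdr3 grown in galactose medium; growth measured after three days at 30 °C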
Details: S. cerevisiae expressing PfHsp40, growth rescue, at 12.5 µM, hits give high values

Compound	growth rescue
Cc1nnc(NN2CCOCC2)[nH]c1=O	inactive: -0.952%
Cc1ccc(S(=O)(=O)N(C)C[C@H]2Oc3ccc(NC(=O)Nc4c(C)noc4C)cc3CC(=O)N([C@@H](C)CO)C[C@@H]2C)cc1	inconclusive: 26.1%
COC(=O)c1ccc(C(=O)OC)c(NC(=O)CSc2cccc[n+]2[O-])c1	inconclusive: 59.1%
Cc1ccc(NC(=S)N(CCN(C)C)C(C)c2ccco2)c(C)c1 (configuration not stated)	inconclusive: 26.4%
c1ccc(Cn2nnnc2C(c2cccnc2)N2CCN(c3ccccc3)CC2)cc1 (configuration not stated)	inconclusive: 128%
NS(=O)(=O)c1cccn1-c1ncc(C(F)(F)F)cc1Cl	inconclusive: 37.6%
O=[N+]([O-])c1ccc(NC(=S)N2CCN(S(=O)(=O)c3ccccc3)CC2)cc1	inconclusive: 64.7%
C=CCOC(=O)C(=O)/C=C/c1coc2ccccc2c1=O	inconclusive: 32.2%
CCOC(=O)Cn1nc(-c2ccc(F)cc2)cc(Cc2ccccc2)c1=O	inactive: 4.21%
Cc1ccc(S(=O)(=O)N[C@@H](Cc2ccccc2)C(=O)CCl)cc1	inconclusive: 55.3%
CCCN1CCCC[C@H]1C(=O)Nc1c(C)cccc1C	active: 43.1%
CCCn1c(N2CCC(Cc3ccccc3)CC2)nc2c1c(=O)[nH]c(=O)n2C	inactive: 7.24%
COc1ccc(C(=O)CCC(=O)NCCc2ccccc2F)cc1	inactive: -0.259%
CNS(=O)(=O)c1cccc(C(=O)OCC(=O)C23CC4CC(CC(C4)C2)C3)c1	inconclusive: 30.6%
CC(Sc1nc(N)cc(N)n1)C(=O)NCC1CCCO1 (configuration not stated)	inactive: -0.439%
CC1CN(CCC(=O)Nc2ccc3c(c2)OCO3)CC(C)O1 (configuration not stated)	inconclusive: 44.2%
Cn1c(SCC(=O)Nc2sccc2C#N)nnc1-c1ccccc1	inconclusive: 50.2%
CC1CCCCC1NC(=O)c1ccc(N2CCCC2=O)cc1 (configuration not stated)	inconclusive: 42.7%
O=C(COC(=O)Cc1n[nH]c(=O)c2ccccc12)Nc1c(Cl)cccc1C(F)(F)F	inconclusive: 37.9%

Structural class: the compounds so far with two or more sulfur atoms
Compound	growth rescue
O=[N+]([O-])c1ccc(NC(=S)N2CCN(S(=O)(=O)c3ccccc3)CC2)cc1	inconclusive: 64.7%
Cn1c(SCC(=O)Nc2sccc2C#N)nnc1-c1ccccc1	inconclusive: 50.2%

(continued)

Compound	growth rescue
C(C#CCCCCCCCCC[n+]1ccccc1)#CCCCCCCCCC[n+]1ccccc1	inconclusive: 27.8%
Cc1ccc(C(=O)NCCc2sc(C)nc2C)cc1	inactive: -0.395%
Cn1nnc2cc(NC(=O)Nc3cccc(Cl)c3)ccc21	inactive: 1.13%
CCN(CC)CCCNC(=O)C1c2ccccc2Oc2ccccc21	inconclusive: 27.8%
O=C(Nc1cccc(C(=O)O)c1)/C(=C\c1ccc2c(c1)OCO2)NC(=O)c1ccccc1	inactive: -1.33%
CCOC(=O)C1CCCN(CCC(=O)Nc2ccc3c(c2)CCC3)C1 (configuration not stated)	inconclusive: 50%
CCn1c(CNc2ccc(Cl)cc2)nnc1SCC(=O)NCc1ccccc1	inactive: -0.858%
COc1cc(N(C)C)ccc1C=c1c2ccccc2n2c1cc(-c1ccccc1)[n+]2C	inconclusive: 28.3%
CCCN1CCN(CCCNC(=O)c2ccc(CS(=O)c3ccccc3C)o2)CC1 (configuration not stated)	inconclusive: 36.7%
O=C(CCn1c(=O)c2ccccc2n(Cc2ccccc2)c1=O)NCc1ccc2c(c1)OCO2	inconclusive: 40.9%
COc1ccc(-n2c(O)c(C=NCCN3CCN(C(C)=O)CC3)c(=O)[nH]c2=S)cc1	inconclusive: 39.5%
Cc1cnc(C(=O)Nc2cccc3cccnc23)cn1	inconclusive: 34.4%
Cc1ccccc1OCCN1CCC(Cc2ccccc2)CC1	active: 59.1%
CCOC(=O)N1C(=O)[C@@](c2ccc(Cl)cc2)(C(C)C)N1C(=O)OCC	inconclusive: 76.5%
COc1ccc(C23CC4CC(CC(C(=O)O)(C4)C2)C3)c(F)c1	inconclusive: 67.4%
COc1ccc(/C=N/Nc2cc(N3CCCC3)nc(N3CCCC3)n2)cc1	inconclusive: 37.9%
O=c1oc2ccccc2cc1-c1csc(Nc2ccc(O)cc2)n1	active: 77.4%
O=C(Nc1ccon1)c1ccc(Cl)s1	inactive: -1.17%
Cc1cccc(C(=O)NCC(=O)N2CCOCC2)c1	inconclusive: 37.6%

Compound	growth rescue
c1ccc(CCNc2nc(-c3ccncc3)nc3ccccc23)cc1	inactive: -2.5%
CC(C)[C@H](N)C(=O)NC[C@H]1O[C@@H](n2cnc3c(N)ncnc32)[C@H](O)[C@@H]1O	inconclusive: 30.8%
CNC(=S)N1N=C(c2ccc(Br)cc2)CC1c1ccc(Br)cc1 (configuration not stated)	inactive: 0.133%
CCOC(=O)c1c(C)nc2ccccc2c1-c1ccccc1	inconclusive: 28.4%
COc1ccc(Cl)cc1NS(=O)(=O)c1cccc(C(=O)NCC(c2ccco2)N(C)C)c1 (configuration not stated)	inconclusive: 40.7%
O=C(CCCSc1ccccc1)Nc1nc(-c2ccccn2)cs1	inconclusive: 159%
COc1ccc(NC(=O)C(C)N2c3cccc4cccc(c34)S2(=O)=O)cc1 (configuration not stated)	inactive: 0.238%
O=C(Nc1ccc(NC(=S)NC(=O)c2ccccc2F)cc1)c1cccs1	inconclusive: 32.4%
C/C(=N/Nc1cc(-c2ccccc2)nc(-c2ccccc2)n1)c1ccc(O)cc1	inconclusive: 50.7%
O=C(Nc1ccccc1N(C(=O)c1ccco1)S(=O)(=O)c1cccs1)c1ccco1	active: 40.5%
CCOC(=O)C1CCCCN1Cc1ccc(OC)c(OC)c1OC (configuration not stated)	inconclusive: 61.6%
Cc1ccc(C)c(C(C)NC(=S)NC2CCCCC2)c1 (configuration not stated)	inconclusive: 40.6%
CCOc1ccc(/C=C2\SC(=S)NC2=O)cc1OC	inactive: -0.644%
C=CCn1c(SCC(=O)Nc2ccc3c(c2)OCO3)nc2ccccc2c1=O	inconclusive: 38%
C=C1C(=O)OC2CC3(C)OC3CCC(C)=CC(OC(C)=O)C12 (configuration not stated)	inactive: -0.444%
CCCCNc1c(-c2cccc(Sc3ccc(OC)cc3)c2)nc2ccccn12	active: 310%
COc1cc(Cl)ccc1OCc1cc(C(=O)N(C)C2CC(C)(C)NC(C)(C)C2)no1	inconclusive: 27.3%
O=C(O)c1[nH]c2ccccc2c1-c1ccccc1	inactive: -1.2%
COc1cc(C#Cc2c(-c3cncn3C)n(C)c3ccc(Br)cc23)cc(OC)c1	inconclusive: 112%
